No constants are given. Whether binding was seen depends on the method and setting. Some entries that bind do so weakly or less than the wild type.
Assays:
[1] = target: Apobec3G H248A MAPPIT bait (human) (UniProt Q9HC16); assay: two-hybrid; MAPPIT (mammalian two-hybrid) in intact HEK293T cells: bait on the EpoR/leptin receptor chimera, prey on gp130 fragments, pXP2d2-rPAP1-luciferase reporter; fold induction of luciferase, Epo-stimulated (10 ng/ml hEpo) over unstimulated; 6-well or 96-well calcium phosphate transfection
[2] = target: Apobec3G Q237K+R238C MAPPIT bait (human) (UniProt Q9HC16); assay: as above
[3] = target: Apobec3G C261A MAPPIT bait (human) (UniProt Q9HC16); assay: as above
[4] = target: Apobec3G D128G random mutant bait (pCEL-Apobec3G-GFP) (human) (UniProt Q9HC16); assay: two-hybrid; random mutagenesis MAPPIT: pCEL-Apobec3G-GFP baits (wild type, W127A, error prone PCR mutants), automated 384-well transfection of HEK293T cells, 1.5 ng bait and 6.5 ng prey plasmid per well, overnight 10 ng/ml hEpo; relative MAPPIT signal as % of the median of the six wild type baits on the plate
[5] = target: Apobec3G A51V/P129S random mutant bait (pCEL-Apobec3G-GFP) (human) (UniProt Q9HC16); assay: as above
[6] = target: Toll-like receptor 4 (TLR4) adapter protein TIRAP/Mal (UniProt P58753); assay: two-hybrid; random mutagenesis MAPPIT, unpublished results named in the discussion

Protein sequences, listed by entry. Tags and fused reporters are not part of them. Lines headed by an entry give the natural chain unless they say otherwise; changes in a name come on top. Residues count along the entry.
UniProt Q9HC16: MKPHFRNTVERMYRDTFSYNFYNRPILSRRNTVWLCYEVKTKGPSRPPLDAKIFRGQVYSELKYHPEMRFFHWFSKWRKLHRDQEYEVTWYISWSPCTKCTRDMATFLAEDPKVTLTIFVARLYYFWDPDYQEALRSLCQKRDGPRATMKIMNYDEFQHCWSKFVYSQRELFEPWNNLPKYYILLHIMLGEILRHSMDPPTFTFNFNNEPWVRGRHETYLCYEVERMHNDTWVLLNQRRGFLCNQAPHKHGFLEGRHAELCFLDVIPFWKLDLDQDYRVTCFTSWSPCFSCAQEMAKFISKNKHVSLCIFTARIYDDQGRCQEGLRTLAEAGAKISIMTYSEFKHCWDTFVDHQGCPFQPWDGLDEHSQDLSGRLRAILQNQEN
UniProt P58753: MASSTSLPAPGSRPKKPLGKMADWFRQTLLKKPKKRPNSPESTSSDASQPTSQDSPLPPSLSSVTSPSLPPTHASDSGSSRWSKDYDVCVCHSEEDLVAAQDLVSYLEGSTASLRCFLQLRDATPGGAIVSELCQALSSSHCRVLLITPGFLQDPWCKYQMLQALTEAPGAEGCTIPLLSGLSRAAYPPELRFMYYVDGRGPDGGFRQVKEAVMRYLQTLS
UniProt O00206, residues 24-839: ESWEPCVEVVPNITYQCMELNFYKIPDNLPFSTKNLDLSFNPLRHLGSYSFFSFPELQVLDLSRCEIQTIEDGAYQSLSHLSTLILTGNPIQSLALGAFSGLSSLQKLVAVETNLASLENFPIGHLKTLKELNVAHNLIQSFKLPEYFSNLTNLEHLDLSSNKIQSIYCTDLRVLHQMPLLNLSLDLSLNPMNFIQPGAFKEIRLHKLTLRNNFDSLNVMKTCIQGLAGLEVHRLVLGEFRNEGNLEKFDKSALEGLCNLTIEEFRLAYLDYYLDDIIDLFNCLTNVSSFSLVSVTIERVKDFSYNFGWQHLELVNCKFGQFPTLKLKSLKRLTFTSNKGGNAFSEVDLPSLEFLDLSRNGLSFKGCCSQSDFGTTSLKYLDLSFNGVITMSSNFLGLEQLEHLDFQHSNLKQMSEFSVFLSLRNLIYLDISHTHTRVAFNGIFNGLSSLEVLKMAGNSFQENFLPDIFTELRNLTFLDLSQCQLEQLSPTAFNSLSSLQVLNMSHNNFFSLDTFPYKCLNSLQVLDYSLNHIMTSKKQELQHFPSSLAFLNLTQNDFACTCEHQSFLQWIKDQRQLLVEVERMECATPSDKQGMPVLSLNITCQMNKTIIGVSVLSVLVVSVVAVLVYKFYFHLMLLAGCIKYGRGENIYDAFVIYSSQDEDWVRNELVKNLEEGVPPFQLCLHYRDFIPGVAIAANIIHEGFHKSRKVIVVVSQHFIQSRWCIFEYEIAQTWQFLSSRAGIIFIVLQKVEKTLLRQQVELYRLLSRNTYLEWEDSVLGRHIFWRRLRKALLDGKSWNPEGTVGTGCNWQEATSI

Measured: binding

Apobec3G MAPPIT prey (pMG2-Apobec3G) (from UniProt Q9HC16 1-384)
not listed: [6]
binds: all other assays above

Toll-like receptor 4 (TLR4) (from UniProt O00206 24-839)
binds: [6]

— publication PMC3438196
